The values below come from publication PMC10349095.

The chains behind the UniProt entries cited, without tags or fusion partners.
UniProt Q9Z2K1: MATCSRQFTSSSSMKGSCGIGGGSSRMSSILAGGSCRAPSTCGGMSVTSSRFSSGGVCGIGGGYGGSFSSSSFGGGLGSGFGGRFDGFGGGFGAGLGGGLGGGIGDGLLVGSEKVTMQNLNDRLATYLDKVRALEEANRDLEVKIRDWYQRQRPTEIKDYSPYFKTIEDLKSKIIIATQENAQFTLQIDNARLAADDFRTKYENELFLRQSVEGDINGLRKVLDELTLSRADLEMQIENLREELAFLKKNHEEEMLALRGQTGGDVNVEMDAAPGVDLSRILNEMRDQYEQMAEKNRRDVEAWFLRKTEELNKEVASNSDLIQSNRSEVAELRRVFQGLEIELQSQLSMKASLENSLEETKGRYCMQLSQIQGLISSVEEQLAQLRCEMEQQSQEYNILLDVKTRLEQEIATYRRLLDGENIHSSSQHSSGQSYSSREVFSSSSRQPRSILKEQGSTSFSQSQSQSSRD

The target of the assay is T1, zinc fingers and homeoboxes 1 (Zhx1) protein, endogenous in cardiac progenitors (mouse (endogenous in cardiac progenitors from mouse ESCs)) (UniProt P70121).
T1 sequence: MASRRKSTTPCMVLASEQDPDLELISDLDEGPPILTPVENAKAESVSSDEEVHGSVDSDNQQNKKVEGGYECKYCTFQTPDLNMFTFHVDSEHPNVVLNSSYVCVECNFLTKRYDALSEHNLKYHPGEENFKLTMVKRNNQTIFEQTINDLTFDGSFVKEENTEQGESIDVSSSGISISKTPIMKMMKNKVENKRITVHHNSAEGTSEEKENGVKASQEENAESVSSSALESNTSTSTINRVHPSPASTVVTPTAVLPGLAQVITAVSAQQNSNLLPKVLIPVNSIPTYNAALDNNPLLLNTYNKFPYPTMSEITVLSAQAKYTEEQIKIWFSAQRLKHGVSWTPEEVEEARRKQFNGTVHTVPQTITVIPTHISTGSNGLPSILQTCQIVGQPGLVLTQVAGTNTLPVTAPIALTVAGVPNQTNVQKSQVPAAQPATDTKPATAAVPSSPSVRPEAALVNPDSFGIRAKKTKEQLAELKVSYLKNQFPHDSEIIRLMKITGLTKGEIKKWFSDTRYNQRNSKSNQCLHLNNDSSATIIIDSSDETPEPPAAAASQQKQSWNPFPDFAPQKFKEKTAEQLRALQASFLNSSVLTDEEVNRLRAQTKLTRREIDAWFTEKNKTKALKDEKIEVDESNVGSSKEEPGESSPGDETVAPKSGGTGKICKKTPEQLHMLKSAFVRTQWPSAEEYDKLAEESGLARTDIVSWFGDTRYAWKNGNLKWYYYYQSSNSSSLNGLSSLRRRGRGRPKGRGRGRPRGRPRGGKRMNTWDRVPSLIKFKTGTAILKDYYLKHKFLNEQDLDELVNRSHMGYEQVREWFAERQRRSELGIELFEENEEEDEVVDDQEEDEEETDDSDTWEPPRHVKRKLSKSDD
Kind of assay: affinity purification with mass spectrometry; IP from lysate of cardiac progenitors (IP lysis buffer, on ice 30 min) with magnetic beads carrying an anti-Zhx1 antibody; LC-MS.

No constants are given. Whether binding was seen depends on the method and setting. Binding seen in cells or lysates may run through a third protein. These calls come from enrichment with a bait or labelling near it, and not all partners need be listed.

As to Krt16 (from UniProt Q9Z2K1 1-469), the binding entry is reported as “binds”.

B1: Hsd17b4 (protein, UniProt P51660 1-735)
chain: MASPLRFDGRVVLVTGAGGGLGRAYALAFAERGALVIVNDLGGDFKGIGKGSSAADKVVAEIRRKGGKAVANYDSVEAGEKLVKTALDTFGRIDVVVNNAGILRDRSFSRISDEDWDIIHRVHLRGSFQVTRAAWDHMKKQNYGRILMTSSASGIYGNFGQANYSAAKLGILGLCNTLAIEGRKNNIHCNTIAPNAGSRMTETVLPEDLVEALKPEYVAPLVLWLCHESCEENGGLFEVGAGWIGKLRWERTLGAIVRKRNQPMTPEAVRDNWEKICDFSNASKPQTIQESTGGIVEVLHKVDSEGISPNRTSHAAPAATSGFVGAVGHKLPSFSSSYTELQSIMYALGVGASVKNPKDLKFVYEGSADFSCLPTFGVIVAQKSMMNGGLAEVPGLSFNFAKALHGEQYLELYKPLPRSGELKCEAVIADILDKGSGVVIVMDVYSYSGKELICYNQFSVFVVGSGGFGGKRTSEKLKAAVAVPNRPPDAVLRDATSLNQAALYRLSGDWNPLHIDPDFASVAGFEKPILHGLCTFGFSARHVLQQFADNDVSRFKAIKVRFAKPVYPGQTLQTEMWKEGNRIHFQTKVHETGDVVISNAYVDLVPASGVSTQTPSEGGELQSALVFGEIGRRLKSVGREVVKKANAVFEWHITKGGTVAAKWTIDLKSGSGEVYQGPAKGSADVTIIISDEDFMEVVFGKLDPQKAFFSGRLKARGNIMLSQKLQMILKDYAKL
With B1, the binding entry is on record as “binds”.

B2: Ywhaq (protein, UniProt P68254 1-245)
chain: MEKTELIQKAKLAEQAERYDDMATCMKAVTEQGAELSNEERNLLSVAYKNVVGGRRSAWRVISSIEQKTDTSDKKLQLIKDYREKVESELRSICTTVLELLDKYLIANATNPESKVFYLKMKGDYFRYLAEVACGDDRKQTIENSQGAYQEAFDISKKEMQPTHPIRLGLALNFSVFYYEILNNPELACTLAKTAFDEAIAELDTLNEDSYKDSTLIMQLLRDNLTLWTSDSAGEECDAAEGAEN
With B2, the binding entry was “binds”.
